Assay results reported in PMC5983848.

Protein sequences, listed by entry. Tags and fused reporters are not part of them. Lines headed by an entry give the natural chain unless they say otherwise; changes in a name come on top.
UniProt P43354: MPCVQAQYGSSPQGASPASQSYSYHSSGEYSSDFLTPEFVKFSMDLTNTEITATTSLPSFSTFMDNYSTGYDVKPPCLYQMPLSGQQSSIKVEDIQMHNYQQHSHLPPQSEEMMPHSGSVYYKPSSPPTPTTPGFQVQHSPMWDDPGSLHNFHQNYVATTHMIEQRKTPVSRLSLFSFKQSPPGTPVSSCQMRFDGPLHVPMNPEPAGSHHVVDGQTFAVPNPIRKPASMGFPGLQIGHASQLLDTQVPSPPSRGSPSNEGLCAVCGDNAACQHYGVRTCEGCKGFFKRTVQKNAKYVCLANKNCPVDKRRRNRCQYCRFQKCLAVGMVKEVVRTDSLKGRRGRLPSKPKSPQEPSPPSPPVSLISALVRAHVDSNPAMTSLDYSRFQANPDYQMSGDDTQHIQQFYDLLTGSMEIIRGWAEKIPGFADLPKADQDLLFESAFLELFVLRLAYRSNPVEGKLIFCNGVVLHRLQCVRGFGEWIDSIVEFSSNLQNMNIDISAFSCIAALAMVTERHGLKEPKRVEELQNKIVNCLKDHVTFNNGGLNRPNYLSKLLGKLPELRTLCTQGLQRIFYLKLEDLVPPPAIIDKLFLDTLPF
UniProt P51532: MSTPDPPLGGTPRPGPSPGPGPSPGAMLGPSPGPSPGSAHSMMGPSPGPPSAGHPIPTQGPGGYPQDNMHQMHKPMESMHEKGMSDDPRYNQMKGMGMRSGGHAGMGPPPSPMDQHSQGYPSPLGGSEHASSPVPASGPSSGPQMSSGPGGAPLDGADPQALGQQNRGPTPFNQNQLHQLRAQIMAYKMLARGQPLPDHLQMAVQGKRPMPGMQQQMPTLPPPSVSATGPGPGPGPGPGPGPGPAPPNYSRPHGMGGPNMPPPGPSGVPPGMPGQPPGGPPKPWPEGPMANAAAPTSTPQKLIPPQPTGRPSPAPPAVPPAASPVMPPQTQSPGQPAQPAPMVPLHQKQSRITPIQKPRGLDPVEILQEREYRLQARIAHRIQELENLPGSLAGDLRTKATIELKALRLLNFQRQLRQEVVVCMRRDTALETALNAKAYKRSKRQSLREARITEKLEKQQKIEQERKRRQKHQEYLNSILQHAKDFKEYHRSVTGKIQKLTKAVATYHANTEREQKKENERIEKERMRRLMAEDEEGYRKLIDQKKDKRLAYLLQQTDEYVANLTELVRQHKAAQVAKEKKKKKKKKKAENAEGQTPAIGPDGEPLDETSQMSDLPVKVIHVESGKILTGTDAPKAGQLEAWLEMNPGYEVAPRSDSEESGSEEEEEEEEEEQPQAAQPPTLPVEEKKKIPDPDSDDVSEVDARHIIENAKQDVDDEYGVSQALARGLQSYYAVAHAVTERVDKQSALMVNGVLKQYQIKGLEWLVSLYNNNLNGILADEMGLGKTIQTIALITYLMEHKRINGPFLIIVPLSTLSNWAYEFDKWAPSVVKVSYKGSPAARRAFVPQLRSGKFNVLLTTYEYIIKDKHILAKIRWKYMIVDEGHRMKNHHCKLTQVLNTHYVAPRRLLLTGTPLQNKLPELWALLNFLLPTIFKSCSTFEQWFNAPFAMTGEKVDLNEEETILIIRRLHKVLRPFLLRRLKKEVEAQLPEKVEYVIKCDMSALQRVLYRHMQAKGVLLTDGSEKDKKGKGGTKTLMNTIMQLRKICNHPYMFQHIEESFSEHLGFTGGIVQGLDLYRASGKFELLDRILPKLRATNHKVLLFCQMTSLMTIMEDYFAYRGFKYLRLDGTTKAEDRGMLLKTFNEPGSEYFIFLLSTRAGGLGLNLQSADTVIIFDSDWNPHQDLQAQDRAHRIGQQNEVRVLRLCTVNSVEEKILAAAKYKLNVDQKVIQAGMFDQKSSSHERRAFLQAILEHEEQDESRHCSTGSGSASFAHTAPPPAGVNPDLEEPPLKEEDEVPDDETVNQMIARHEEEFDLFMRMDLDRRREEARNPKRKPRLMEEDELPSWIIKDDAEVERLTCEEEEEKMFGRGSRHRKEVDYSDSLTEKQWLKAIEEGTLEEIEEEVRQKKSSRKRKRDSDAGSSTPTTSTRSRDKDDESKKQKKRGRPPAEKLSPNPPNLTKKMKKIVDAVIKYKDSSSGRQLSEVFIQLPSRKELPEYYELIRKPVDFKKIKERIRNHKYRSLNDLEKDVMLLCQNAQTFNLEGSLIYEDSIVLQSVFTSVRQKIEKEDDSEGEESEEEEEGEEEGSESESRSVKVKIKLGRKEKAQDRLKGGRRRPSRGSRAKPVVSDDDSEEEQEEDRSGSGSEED
UniProt Q92570: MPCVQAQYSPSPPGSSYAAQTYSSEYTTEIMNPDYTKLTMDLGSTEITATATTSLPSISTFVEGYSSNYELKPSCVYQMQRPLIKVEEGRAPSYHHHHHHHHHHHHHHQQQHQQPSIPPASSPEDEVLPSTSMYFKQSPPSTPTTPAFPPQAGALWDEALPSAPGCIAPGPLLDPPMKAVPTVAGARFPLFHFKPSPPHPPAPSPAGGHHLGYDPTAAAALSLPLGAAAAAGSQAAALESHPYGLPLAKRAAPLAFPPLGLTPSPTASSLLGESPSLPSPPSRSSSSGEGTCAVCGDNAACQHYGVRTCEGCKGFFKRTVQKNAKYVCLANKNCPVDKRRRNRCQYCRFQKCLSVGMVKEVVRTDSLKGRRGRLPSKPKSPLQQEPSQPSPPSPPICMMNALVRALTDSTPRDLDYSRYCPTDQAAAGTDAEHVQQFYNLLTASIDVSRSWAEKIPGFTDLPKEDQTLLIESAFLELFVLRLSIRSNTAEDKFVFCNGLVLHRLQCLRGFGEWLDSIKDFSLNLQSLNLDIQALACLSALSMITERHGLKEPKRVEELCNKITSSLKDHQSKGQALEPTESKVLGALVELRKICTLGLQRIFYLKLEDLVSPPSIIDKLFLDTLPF
UniProt Q13263: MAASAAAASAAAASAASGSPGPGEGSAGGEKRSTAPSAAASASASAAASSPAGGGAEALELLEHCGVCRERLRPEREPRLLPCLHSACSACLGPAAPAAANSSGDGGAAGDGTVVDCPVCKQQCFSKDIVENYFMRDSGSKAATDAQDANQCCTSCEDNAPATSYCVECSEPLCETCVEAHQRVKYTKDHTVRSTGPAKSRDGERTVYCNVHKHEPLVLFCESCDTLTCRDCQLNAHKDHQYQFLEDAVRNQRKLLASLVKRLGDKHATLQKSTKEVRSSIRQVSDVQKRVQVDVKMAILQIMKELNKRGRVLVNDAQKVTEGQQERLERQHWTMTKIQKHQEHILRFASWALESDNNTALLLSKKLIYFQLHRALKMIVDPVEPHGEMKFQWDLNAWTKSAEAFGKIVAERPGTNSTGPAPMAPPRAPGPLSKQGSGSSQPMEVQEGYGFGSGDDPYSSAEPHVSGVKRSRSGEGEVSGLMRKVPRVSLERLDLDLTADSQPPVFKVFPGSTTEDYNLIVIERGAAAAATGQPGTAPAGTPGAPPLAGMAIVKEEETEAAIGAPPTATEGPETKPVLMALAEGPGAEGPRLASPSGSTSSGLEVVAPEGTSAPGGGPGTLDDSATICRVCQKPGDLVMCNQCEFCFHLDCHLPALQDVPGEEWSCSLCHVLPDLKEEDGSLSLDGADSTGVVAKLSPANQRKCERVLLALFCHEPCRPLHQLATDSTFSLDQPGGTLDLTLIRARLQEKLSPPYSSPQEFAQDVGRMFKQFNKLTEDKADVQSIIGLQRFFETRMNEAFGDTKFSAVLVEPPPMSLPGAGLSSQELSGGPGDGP
UniProt P09874: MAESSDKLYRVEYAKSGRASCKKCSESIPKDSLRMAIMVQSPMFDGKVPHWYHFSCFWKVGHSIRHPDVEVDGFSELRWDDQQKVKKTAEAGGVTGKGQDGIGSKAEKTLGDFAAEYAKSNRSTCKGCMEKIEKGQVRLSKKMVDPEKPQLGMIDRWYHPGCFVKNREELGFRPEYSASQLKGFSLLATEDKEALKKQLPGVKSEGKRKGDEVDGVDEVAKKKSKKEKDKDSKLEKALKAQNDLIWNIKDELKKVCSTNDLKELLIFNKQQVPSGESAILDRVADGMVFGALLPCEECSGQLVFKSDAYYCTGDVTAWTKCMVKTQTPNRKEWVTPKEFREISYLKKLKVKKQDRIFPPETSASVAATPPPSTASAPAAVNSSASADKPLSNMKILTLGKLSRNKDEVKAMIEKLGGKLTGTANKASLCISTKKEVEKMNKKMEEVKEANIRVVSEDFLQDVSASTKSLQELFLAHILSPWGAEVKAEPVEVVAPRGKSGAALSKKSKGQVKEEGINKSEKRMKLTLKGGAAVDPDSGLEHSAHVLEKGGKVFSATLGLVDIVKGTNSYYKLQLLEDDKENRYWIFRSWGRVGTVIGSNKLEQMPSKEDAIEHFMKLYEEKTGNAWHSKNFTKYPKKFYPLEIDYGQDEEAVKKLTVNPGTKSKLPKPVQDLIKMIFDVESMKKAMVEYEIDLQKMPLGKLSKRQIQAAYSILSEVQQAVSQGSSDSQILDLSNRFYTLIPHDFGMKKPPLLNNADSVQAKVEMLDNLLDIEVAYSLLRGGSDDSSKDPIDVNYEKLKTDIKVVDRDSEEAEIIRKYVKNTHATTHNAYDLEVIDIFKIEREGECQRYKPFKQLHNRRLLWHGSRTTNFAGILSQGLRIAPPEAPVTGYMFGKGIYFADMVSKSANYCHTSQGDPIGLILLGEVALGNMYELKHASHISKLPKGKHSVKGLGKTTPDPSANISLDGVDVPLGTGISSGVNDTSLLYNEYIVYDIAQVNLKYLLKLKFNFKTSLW

molecular target: Nurr1 (NR4A2), endogenous in H295R cells (human (endogenous in H295R)) (UniProt P43354); experiment: affinity purification with mass spectrometry; RIME: H295R cells stimulated with angiotensin II for 4 h, fixed with 1% formalin, endogenous Nurr1 immunoprecipitated with E-20 (anti-Nurr1/Nur77) or N-20 (anti-Nurr1) on dynabeads, washed with RIPA buffer, on-bead trypsin digest, LC-MS/MS; rabbit IgG as negative control

binding, binds:
BRG-1, endogenous in H295R cells (from UniProt P51532 1-1647)
NOR-1 (neuron-derived orphan receptor 1) (NR4A3), endogenous in H295R cells (from UniProt Q92570 1-626)
TRIM28, endogenous in H295R cells (from UniProt Q13263 1-835)
poly(ADP-ribose) polymerase 1 (PARP1), endogenous in H295R cells (from UniProt P09874 1-1014) (enzyme)

Results are given in words; binding and its absence hold for the method and conditions named. In cells and extracts the contact can be indirect. Here binding means that the protein was enriched with, or labelled near, the bait; the list need not be complete.
